Laboratory results from the supplement of paper PMC10331698.
± gives the standard deviation of the averaged measurements. Small differences around the control level are noise.

Tests used:
Test in all cases: level (log10 ratio to DMSO vehicle control); higher = higher biomarker level / cell amount than vehicle control
[1] = compound: O=C(O)C(F)(F)C(F)(F)C(F)(F)OC(F)(F)F [Perfluoro(4-methoxybutanoic) acid]; conditions: 2200 nM; in DMSO
Procedure: (§1)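 BioMAP Diversity Plus panel of 12 human primary cell co-culture systems (3C, 4H, LPS, SAg, BT, BF4T, BE3C, CASM3C, HDF3CGF, KF3CT, MyoF, Mphg). Compounds were added 1 h before stimulation and left for 24 h (MyoF 48 h; BT 72 h for soluble read-outs or 6 d for IgG). Biomarkers were read by ELISA, cytotoxicity by SRB, PBMC viability and proliferation by Alamar Blue. Each well value was divided by the mean of 8 DMSO control wells on the same plate and log10 transformed; duplicate blinded samples were tested at 4 concentrations.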

[2] = compound: CCN(CCO)S(=O)(=O)C(F)(F)C(F)(F)C(F)(F)C(F)(F)C(F)(F)C(F)(F)C(F)(F)C(F)(F)F [N-Ethyl-N-(2-hydroxyethyl)perfluorooctanesulfonamide]; conditions: in DMSO
Procedure: as §1

[3] = compound: O=S(=O)(O)CCC(F)(F)C(F)(F)C(F)(F)C(F)(F)C(F)(F)C(F)(F)C(F)(F)C(F)(F)F [8:2 Fluorotelomer sulfonic acid]; conditions: in DMSO
Procedure: as §1

[4] = compound: OCCC(F)(F)C(F)(F)C(F)(F)C(F)(F)C(F)(F)C(F)(F)F [6:2 Fluorotelomer alcohol]; conditions: 2200 nM; in DMSO
Procedure: as §1

[5] = compound: FC(F)(F)C(F)(F)C(F)(F)C(F)(F)C(F)(F)C(F)(F)CC1CO1 [3-(Perfluorohexyl)-1,2-epoxypropane]; conditions: 2200 nM; in DMSO
Procedure: as §1

[6] = compound: CN(C(=O)C(F)(F)C(F)(F)C(F)(F)F)[Si](C)(C)C [N-Methyl-N-trimethylsilylheptafluorobutyramide]; conditions: 2200 nM; in DMSO
Procedure: as §1

[7] = compound: NCC(F)(F)C(F)(F)C(F)(F)C(F)(F)C(F)(F)C(F)(F)C(F)(F)F [1H,1H-Perfluorooctylamine]; conditions: 2200 nM; in DMSO
Procedure: as §1

[8] = compound: CC(C)(C)C(=O)CC(=O)C(F)(F)C(F)(F)C(F)(F)F [(Heptafluorobutanoyl)pivaloylmethane]; conditions: 2200 nM; in DMSO
Procedure: as §1

[9] = compound: O=C(O)C(F)(F)C(F)(F)C(F)(F)C(F)(F)C(F)(F)C(F)(F)F [Perfluoroheptanoic acid]; conditions: in DMSO
Procedure: as §1

[10] = compound: O=C(O)C(F)(F)C(F)(F)C(F)(F)C(F)(F)C(=O)O [Octafluoroadipic acid]; conditions: 2200 nM; in DMSO
Procedure: as §1

[11] = compound: OCC(F)(F)C(F)(F)C(F)(F)F [1H,1H-Heptafluorobutanol]; conditions: 2200 nM; in DMSO
Procedure: as §1

[12] = compound: CCCCCCCCC(F)(F)C(F)(F)C(F)(F)C(F)(F)C(F)(F)C(F)(F)F [1-(Perfluorohexyl)octane]; conditions: in DMSO
Procedure: as §1

[13] = compound: O=C(O)C(F)(F)C(F)(F)C(F)(F)C(F)(F)C(F)(F)C(F)(F)C(F)(F)C(F)(F)C(F)(F)C(F)F [11-H-Perfluoroundecanoic acid]; conditions: 2200 nM; in DMSO
Procedure: as §1

[14] = compound: O=C(O)C(F)(F)C(F)(F)C(F)(F)C(F)(F)F [Perfluoropentanoic acid]; conditions: in DMSO
Procedure: as §1

[15] = compound: NC(=O)C(F)(F)C(F)(F)C(F)(F)F [Heptafluorobutyramide]; conditions: 2200 nM; in DMSO
Procedure: as §1

[16] = compound: Cc1ccc(S(=O)(=O)OCC(F)(F)C(F)(F)C(F)(F)C(F)(F)C(F)(F)C(F)F)cc1 [1H,1H,7H-Perfluoroheptyl 4-methylbenzenesulfonate]; conditions: 2200 nM; in DMSO
Procedure: as §1

Test System | level (log10) [1] | level (log10) ([2]; 2200 nM) | level (log10) ([2]; 6700 nM) | level (log10) ([2]; 20000 nM) | level (log10) ([3]; 2200 nM) | level (log10) ([3]; 6700 nM) | level (log10) ([3]; 20000 nM) | level (log10) ([3]; 60000 nM) | level (log10) [4] | level (log10) [5] | level (log10) [6] | level (log10) [7] | level (log10) [8] | level (log10) ([9]; 2200 nM) | level (log10) ([9]; 6700 nM) | level (log10) ([9]; 20000 nM) | level (log10) ([9]; 60000 nM) | level (log10) [10] | level (log10) [11] | level (log10) ([12]; 740 nM) | level (log10) ([12]; 2200 nM) | level (log10) [13] | level (log10) ([14]; 2200 nM) | level (log10) ([14]; 6700 nM) | level (log10) ([14]; 20000 nM) | level (log10) ([14]; 60000 nM) | level (log10) [15] | level (log10) [16]
3C:CD141/Thrombomodulin | 0.0005 ± 0.07 | 0.046 ± 0.0099 | 0.046 ± 0.03 | 0.261 ± 0.14 | 0.002 ± 0.0099 | -0.003 ± 0.024 | -0.011 ± 0.034 | 0.0285 ± 0.037 | -0.027 ± 0.028 | -0.019 ± 0.023 | -0.0015 ± 0.022 | -0.017 ± 0.017 | -0.011 ± 0.052 | 0.0045 ± 0.00071 | 0.0185 ± 0.0035 | 0.0035 ± 0.00071 | 0.0205 ± 0.0021 | 0.0065 ± 0.0078 | -0.0065 ± 0.019 | -0.0095 ± 0.042 | 0.0045 ± 0.026 | 0.001 ± 0.014 | 0.0215 ± 0.023 | 0.024 ± 0.021 | 0.0345 ± 0.005 | 0.0685 ± 0.042 | 0.0015 ± 0.1 | 0.009 ± 0.023
LPS:IL-1alpha | -0.018 ± 0.035 | 0.0155 ± 0.019 | -0.098 ± 0.013 | -0.141 ± 0.026 | -0.024 ± 0.037 | -0.0195 ± 0.03 | -0.016 ± 0.037 | -0.283 ± 0.19 | 0.006 ± 0.072 | 0.0055 ± 0.028 | -0.0045 ± 0.018 | -0.002 ± 0.011 | -0.0365 ± 0.029 | 0.019 ± 0.035 | -0.002 ± 0.0057 | -0.0265 ± 0.0078 | 0.006 ± 0.047 | -0.0005 ± 0.06 | -0.029 ± 0.033 | 0.006 ± 0.0028 | -0.008 ± 0.013 | 0.0085 ± 0.054 | 0 ± 0.023 | -0.0005 ± 0.00071 | -0.0115 ± 0.012 | -0.021 ± 0.017 | -0.018 ± 0.023 | 0.0115 ± 0.021
MyoF:TIMP-1 | -0.045 ± 0.067 | -0.0425 ± 0.029 | -0.112 ± 0.011 | -0.0885 ± 0.0092 | -0.0315 ± 0.016 | -0.0185 ± 0.0035 | 0.0095 ± 0.021 | -0.008 ± 0.018 | 0.0065 ± 0.021 | 0.014 ± 0.027 | -0.003 ± 0.037 | -0.004 ± 0.0071 | 0.0235 ± 0.054 | 0.0085 ± 0.042 | -0.011 ± 0.0042 | 0.0225 ± 0.0021 | 0.0515 ± 0.0064 | -0.0425 ± 0.063 | 0.0035 ± 0.036 | -0.002 ± 0.0028 | -0.0245 ± 0.0021 | 0.0205 ± 0.018 | -0.037 ± 0.017 | -0.0195 ± 0.023 | -0.043 ± 0.034 | -0.002 ± 0.042 | -0.0515 ± 0.077 | 0.0045 ± 0.016
BE3C:CXCL9/MIG | 0.01 ± 0.017 | -0.01 ± 0.0057 | -0.006 ± 0.0028 | -0.0285 ± 0.0035 | -0.0005 ± 0.0064 | -0.002 ± 0.0085 | -0.015 ± 0.0028 | -0.03 ± 0.011 | 0.0035 ± 0.018 | 0.0135 ± 0.036 | -0.008 ± 0.013 | 0.0115 ± 0.0078 | 0.003 ± 0.0057 | 0.02 ± 0.016 | 0 ± 0.0014 | 0.0065 ± 0.011 | 0.012 ± 0.017 | 0.002 ± 0.014 | -0.003 | 0.005 ± 0.0028 | 0.0015 ± 0.0021 | -0.007 ± 0.018 | 0.006 ± 0.013 | -0.0035 ± 0.0092 | -0.012 ± 0.013 | 0.007 ± 0.018 | 0.002 ± 0.021 | -0.007 ± 0.011
lMphg:IL-1alpha | 0.019 ± 0.041 | -0.0115 ± 0.059 | -0.018 ± 0.054 | -0.0235 ± 0.018 | -0.0065 ± 0.059 | -0.019 ± 0.014 | -0.011 ± 0.028 | -0.035 ± 0.05 | 0.0265 ± 0.026 | -0.0075 ± 0.032 | 0.0065 ± 0.087 | 0.035 ± 0.041 | 0.0225 ± 0.0092 | -0.0145 ± 0.005 | -0.0275 ± 0.042 | -0.0025 ± 0.0035 | 0.0145 ± 0.012 | -0.007 ± 0.033 | 0.0265 ± 0.032 | 0.009 ± 0.035 | -0.0295 ± 0.016 | -0.02 ± 0.03 | -0.016 ± 0.02 | -0.0095 ± 0.022 | -0.0195 ± 0.046 | 0.01 ± 0.05 | -0.013 ± 0.011 | 0.0005 ± 0.042
BE3C:SRB | 0.001 ± 0.0085 | 0.0075 ± 0.011 | -0.0175 ± 0.011 | -0.04 ± 0.0071 | 0.0095 ± 0.023 | -0.007 ± 0.0071 | -0.017 | -0.025 ± 0.0085 | 0.002 ± 0.016 | 0.0055 ± 0.016 | -0.003 ± 0.0028 | 0.013 ± 0.0057 | -0.004 ± 0.0057 | 0.002 ± 0.016 | -0.006 ± 0.0071 | -0.0065 ± 0.0035 | 0.0035 ± 0.011 | 0.0005 ± 0.0092 | 0.001 ± 0.0099 | 0.001 ± 0.0042 | -0.0025 ± 0.0035 | -0.0015 ± 0.0035 | 0.012 ± 0.021 | 0.002 ± 0.0085 | -0.0035 ± 0.005 | 0 ± 0.016 | -0.0005 ± 0.0092 | -0.002 ± 0.0042
BF4T:SRB | -0.002 ± 0.0042 | 0.009 ± 0.017 | -0.016 ± 0.0071 | -0.027 ± 0.018 | 0.0205 ± 0.047 | 0.0035 ± 0.015 | -0.002 ± 0.013 | -0.0005 ± 0.0078 | -0.0035 ± 0.015 | 0.001 ± 0.0042 | -0.0045 ± 0.0035 | 0.0035 ± 0.016 | 0.002 ± 0.02 | -0.0015 ± 0.012 | -0.0085 ± 0.00071 | -0.0115 ± 0.00071 | -0.0035 ± 0.018 | -0.0055 ± 0.012 | 0.006 ± 0.028 | 0 | -0.001 ± 0.0014 | -0.011 ± 0.0042 | 0.003 ± 0.0099 | -0.011 ± 0.0085 | -0.008 ± 0.0071 | 0.001 ± 0.0099 | -0.0055 ± 0.0035 | -0.002 ± 0.0014
BF4T:CD106/VCAM-1 | 0.0275 ± 0.057 | 0.0395 ± 0.03 | -0.039 ± 0.0085 | -0.0615 ± 0.0092 | 0.0245 ± 0.052 | 0.0035 ± 0.035 | -0.0285 ± 0.03 | -0.041 ± 0.0028 | 0.007 ± 0.098 | 0.008 ± 0.03 | 0.0055 ± 0.0035 | 0.0165 ± 0.044 | 0.008 ± 0.067 | -0.0045 ± 0.05 | -0.0015 ± 0.029 | 0.0115 ± 0.015 | 0.029 ± 0.0099 | 0.0065 ± 0.06 | 0.035 ± 0.031 | 0.004 ± 0.051 | -0.009 ± 0.037 | -0.0975 ± 0.00071 | 0.007 ± 0.068 | -0.0425 ± 0.036 | -0.046 ± 0.016 | 0.018 ± 0.04 | 0.0255 ± 0.052 | 0.0135 ± 0.047
